{"source": "PubChem BioAssay AID504834", "about": "(National Center for Advancing Translational Sciences (NCATS), 2011)", "note": "In all, about 320,000 compounds went through this assay and about 22,000 (6.9%) were called active. The inconclusive results got no clear call from the source; some entries with a clear call stand among them for comparison. Calls follow the shape of the dose curve; as a rule, active = well fitted inhibition curve with a large enough effect; inconclusive = small, poorly fitted or top-dose-only effect, or another doubt; inactive = no such curve, though single readings can be large or run the other way. Where the call is inconclusive, the potency comes from a doubtful curve fit. % is scaled to controls: 0 for no effect and ±100 for the full control effect; potency is read from the fitted curve at half-maximal effect."}
{"assay": "Primary qHTS for delayed death inhibitors of the malarial parasite plastid, 96 hour incubation", "details": "P. falciparum luciferase reporter growth; series mostly up to 28.7 µM; activity change, negative = inhibition: at the top concentration", "procedure,_shortened": "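Two-generation exposure (96 h) targets delayed-death phenotype. Reporter parasites carrying integrated firefly luciferase, in red cells at 2% hematocrit and 0.05% parasitemia final, kept at 37 C, 5% CO2; luminescence loss indicates inhibition.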"}
{"compound": "COCc1c(C(=O)N/N=C(\\C)c2ccc(Cl)s2)nnn1-c1nonc1N", "Potency": "inconclusive: 18.5 µM [inhibitor, single point]"}
{"compound": "COc1ccc(N(CC(=O)Nc2ccc(C)c(C)c2)S(=O)(=O)c2c(C)noc2C)cc1", "Potency": "inconclusive: 18.5 µM [inhibitor, single point]"}
{"compound": "COC(=O)C1=C(c2ccc(OC(F)(F)F)cc2)C[C@@H]2CC[C@H]1N2C(=O)NCCCOC(C)C", "Potency": "inconclusive: 10.4 µM [inhibitor, partial curve]"}
{"compound": "CCc1ccc(S(=O)(=O)Nc2ccc(O)c3c(=O)cc(-c4ccccc4Cl)oc23)cc1", "Potency": "inconclusive: 18.5 µM [inhibitor, single point]"}
{"compound": "CCN(CCC#N)c1ccc(N2C(=O)CCCC2=O)cc1[N+](=O)[O-]", "Potency": "inconclusive: 0.522 µM [inhibitor, partial curve, poor fit]"}
{"compound": "CC1(C)CC(=O)C2=C(C1)NC(=O)NC2c1ccccc1", "note": "(stereo not given)", "activity change, negative = inhibition": "inactive: -8.26%"}
{"compound": "Cc1csc(NC(=O)c2nc3nc(C)cc(C)n3n2)n1", "activity change, negative = inhibition": "inactive: 24%"}
{"compound": "Cc1c(-c2nc(-c3cccnc3)no2)cccc1[N+](=O)[O-]", "activity change, negative = inhibition": "inactive: 13.5%"}
{"compound": "O=S(=O)(NC1CCCCC1)c1cccc2nsnc12", "Potency": "inconclusive: 13.1 µM [inhibitor, partial curve, poor fit]"}
{"compound": "NC(=O)[C@@H]1CC2(CC(c3cccc(NC(=O)CC(c4ccccc4)c4ccccc4)c3)=NO2)CN1C(=O)c1ccc(Cl)cc1", "note": "(stereo not given in full)", "Potency": "inconclusive: 10.4 µM [inhibitor, single point]"}
{"compound": "CCCOc1ccccc1NC(=O)c1c(-c2ccccc2)noc1C", "Potency": "inconclusive: 0.0415 µM [inhibitor, partial curve, poor fit]"}
{"compound": "N/C(=N\\OC(=O)CCc1ccccc1)c1ccccc1Cl", "Potency": "inconclusive: 14.7 µM [inhibitor, partial curve]"}
{"compound": "O=S(=O)(c1cccc(Cl)c1)N1CCCC1", "activity change, negative = inhibition": "inactive: -0.399%"}
{"compound": "Fc1ccc2c(c1)nnn2C1CCN(Cc2c(Cl)cccc2Cl)CC1", "Potency": "active: 10.4 µM"}
{"compound": "COc1ccccc1C(=O)Nc1ccc2c(c1)CCCN2C(=O)c1ccccc1", "activity change, negative = inhibition": "inactive: -3.44%"}
{"compound": "Cc1ccc(S(=O)(=O)N2CCN(c3ccccc3)CC2)c(C)c1", "activity change, negative = inhibition": "inactive: 327%"}
{"compound": "O=C(NCCCN1CCc2ccccc2C1)C1CCN(c2nnc(-n3cccc3)s2)CC1", "Potency": "inconclusive: 13.1 µM [inhibitor, single point]"}
{"compound": "Cc1nonc1C(=O)N/N=C/c1ccc([N+](=O)[O-])o1", "Potency": "inconclusive: 16.5 µM [inhibitor, single point]"}
{"compound": "CC(C)(C)c1ccc(OCC(=O)N/N=C/c2ccc(N3CCOCC3)cc2)cc1", "Potency": "inconclusive: 14.7 µM [inhibitor, single point]"}
{"compound": "CCCCCCC(=O)Nc1nc(C)c(-c2csc(Nc3ccc(Cl)cc3)n2)s1", "Potency": "active: 2.94 µM"}
{"compound": "COCCNC(=S)N1CCC(c2nc(-c3ccc(F)cc3)no2)CC1", "Potency": "inconclusive: 10.4 µM [inhibitor, single point]"}
{"compound": "COc1ccc(C2=NO[C@@](CC(=O)O)(C(=O)Nc3ccc4c(c3)OCCO4)C2)cc1", "activity change, negative = inhibition": "inactive: 24.8%"}
{"compound": "COc1ccccc1Nc1nc(C)cc(C)n1", "Potency": "inconclusive: 1.17 µM [inhibitor, partial curve, poor fit]"}
{"compound": "CC(=O)Nc1ccc(S(=O)(=O)N(C)c2ccc(OCC(=O)OCC(=O)Nc3ccc(OC(F)F)cc3)cc2)cc1", "activity change, negative = inhibition": "inactive: -17.7%"}
{"compound": "Cc1ccc(-c2cc(-c3nnc(SCC(=O)NC(C)C(C)C)n3N)c3ccccc3n2)cc1", "note": "(stereo not given)", "Potency": "inconclusive: 8.28 µM [inhibitor, partial curve]"}
{"compound": "CN1CCN(c2ccc([N+](=O)[O-])c(Sc3nc4ccccc4[nH]3)c2)CC1", "Potency": "inconclusive: 0.0828 µM [inhibitor, full curve, poor fit]"}
{"compound": "O=C(c1ccc(Br)o1)N1CCN=C1SCc1cccnc1", "activity change, negative = inhibition": "inactive: 19.6%"}
{"compound": "c1ccc(COc2ccc(OCCN3CCCC3)cc2)cc1", "activity change, negative = inhibition": "inactive: -20.1%"}
{"compound": "CCOc1ccccc1NC(=O)c1ccccc1N(C)S(C)(=O)=O", "activity change, negative = inhibition": "inactive: 0%"}
{"compound": "Cc1oc2c(F)c(F)c(F)c(F)c2c1S(=O)(=O)Nc1cccc(C(F)(F)F)c1", "Potency": "inconclusive: 11.7 µM [inhibitor, single point]"}
{"compound": "Cc1ccc(N(CC(=O)NC2CCCCC2C)S(=O)(=O)c2c(C)noc2C)cc1", "note": "(stereo not given)", "Potency": "active: 9.28 µM"}
{"compound": "CC(=O)N1CCN(c2ccccc2NC(=O)COc2ccccc2C)CC1", "activity change, negative = inhibition": "inactive: 25.9%"}
{"compound": "CN(Cc1nc2ccccc2c(=O)[nH]1)C(=O)c1ccc(S(=O)(=O)N2CCCC2)cc1", "Potency": "inconclusive: 18.5 µM [inhibitor, single point]"}
{"compound": "O=C(NCCCNC(=O)c1ccc(F)cc1)c1ccc(F)cc1", "activity change, negative = inhibition": "inactive: 22.1%"}
{"compound": "Cc1ccc(S(=O)(=O)NC(CC(C)C)C(=O)NCC(C)(C)N2CCOCC2)cc1", "note": "(stereo not given)", "activity change, negative = inhibition": "inactive: -21.6%"}
{"compound": "Cc1cccc(C(C)C)c1NC(=O)CN(C)Cc1cccc(F)c1", "Potency": "inconclusive: 16.5 µM [inhibitor, single point]"}
{"compound": "Cn1c(C(=O)N2CCN(c3nc4ccccc4s3)CC2)cc2sccc21", "activity change, negative = inhibition": "inactive: 28.2%"}
{"compound": "COc1ccc(Cl)c(Cn2c(NCCCO)nc3c2c(=O)n(C)c(=O)n3C)c1", "Potency": "inconclusive: 4.65 µM [inhibitor, partial curve, poor fit]"}
{"compound": "Cc1ccc(-c2ccc(=O)n(Cc3cccc(Br)c3)n2)cc1", "Potency": "inconclusive: 10.4 µM [inhibitor, single point]"}
{"compound": "COc1ccc(C(=O)C(CO)Oc2ccccc2OC)cc1OC", "note": "(stereo not given)", "Potency": "inconclusive: 3.29 µM [inhibitor, partial curve, poor fit]"}
{"compound": "COc1ccccc1N(CC(=O)N1CCN(c2ccc(F)cc2)CC1)S(=O)(=O)c1ccc(C)cc1", "activity change, negative = inhibition": "inactive: 14.2%"}
{"compound": "C=C(C)Cc1c(C)c(C#N)c2nc3ccccc3n2c1N1CCCCC1", "Potency": "inconclusive: 1.17 µM [inhibitor, partial curve, poor fit]"}
{"compound": "C=CCNC(=O)CN1c2cccc3cccc(c23)S1(=O)=O", "activity change, negative = inhibition": "inactive: 51.9%"}
{"compound": "COc1ccccc1NC(=O)COC(=O)c1ccccc1SCC(=O)N1CCCC1", "Potency": "inconclusive: 1.31 µM [inhibitor, partial curve]"}
{"compound": "Cc1ccc(C)c(N2CCN(S(=O)(=O)c3c(C)noc3C)CC2)c1", "Potency": "inconclusive: 13.1 µM [inhibitor, single point]"}
